{
  "sequences": {"note": "By UniProt entry, the sequences of proteins in these tests, tags left out. Residues count along the entry.", "UniProt Q8R4B8": "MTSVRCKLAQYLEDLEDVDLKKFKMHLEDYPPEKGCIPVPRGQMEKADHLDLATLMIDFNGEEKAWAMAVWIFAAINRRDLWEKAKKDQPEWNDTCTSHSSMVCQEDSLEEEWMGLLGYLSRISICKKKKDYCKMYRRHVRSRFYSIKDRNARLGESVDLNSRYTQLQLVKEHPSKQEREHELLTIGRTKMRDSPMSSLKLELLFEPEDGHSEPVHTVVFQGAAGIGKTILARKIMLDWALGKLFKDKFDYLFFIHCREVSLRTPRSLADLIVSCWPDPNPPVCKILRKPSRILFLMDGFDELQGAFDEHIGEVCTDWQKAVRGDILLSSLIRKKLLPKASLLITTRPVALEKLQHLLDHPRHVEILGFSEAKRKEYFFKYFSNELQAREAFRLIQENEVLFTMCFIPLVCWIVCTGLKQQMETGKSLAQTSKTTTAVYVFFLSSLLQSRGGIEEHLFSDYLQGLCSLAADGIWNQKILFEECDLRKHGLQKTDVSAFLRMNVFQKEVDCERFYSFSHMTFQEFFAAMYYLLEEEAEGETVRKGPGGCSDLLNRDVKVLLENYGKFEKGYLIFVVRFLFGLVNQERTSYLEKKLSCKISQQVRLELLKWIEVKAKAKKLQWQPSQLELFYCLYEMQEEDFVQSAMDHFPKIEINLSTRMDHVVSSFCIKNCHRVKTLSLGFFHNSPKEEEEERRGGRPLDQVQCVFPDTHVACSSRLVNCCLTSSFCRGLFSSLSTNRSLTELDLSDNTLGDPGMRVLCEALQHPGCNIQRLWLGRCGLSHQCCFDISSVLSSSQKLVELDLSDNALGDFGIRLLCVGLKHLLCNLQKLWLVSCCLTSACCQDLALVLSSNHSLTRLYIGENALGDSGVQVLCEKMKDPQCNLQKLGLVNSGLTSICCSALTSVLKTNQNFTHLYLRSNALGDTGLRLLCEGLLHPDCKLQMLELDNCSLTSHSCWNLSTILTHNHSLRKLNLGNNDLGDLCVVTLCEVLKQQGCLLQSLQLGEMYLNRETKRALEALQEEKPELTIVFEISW", "UniProt Q9ULZ3": "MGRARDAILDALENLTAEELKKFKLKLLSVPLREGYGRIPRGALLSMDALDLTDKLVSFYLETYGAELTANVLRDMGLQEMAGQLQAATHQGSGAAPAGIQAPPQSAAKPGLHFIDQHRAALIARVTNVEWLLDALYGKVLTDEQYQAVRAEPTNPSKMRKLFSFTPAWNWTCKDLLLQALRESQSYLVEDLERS", "UniProt Q96P20, residues 1-536": "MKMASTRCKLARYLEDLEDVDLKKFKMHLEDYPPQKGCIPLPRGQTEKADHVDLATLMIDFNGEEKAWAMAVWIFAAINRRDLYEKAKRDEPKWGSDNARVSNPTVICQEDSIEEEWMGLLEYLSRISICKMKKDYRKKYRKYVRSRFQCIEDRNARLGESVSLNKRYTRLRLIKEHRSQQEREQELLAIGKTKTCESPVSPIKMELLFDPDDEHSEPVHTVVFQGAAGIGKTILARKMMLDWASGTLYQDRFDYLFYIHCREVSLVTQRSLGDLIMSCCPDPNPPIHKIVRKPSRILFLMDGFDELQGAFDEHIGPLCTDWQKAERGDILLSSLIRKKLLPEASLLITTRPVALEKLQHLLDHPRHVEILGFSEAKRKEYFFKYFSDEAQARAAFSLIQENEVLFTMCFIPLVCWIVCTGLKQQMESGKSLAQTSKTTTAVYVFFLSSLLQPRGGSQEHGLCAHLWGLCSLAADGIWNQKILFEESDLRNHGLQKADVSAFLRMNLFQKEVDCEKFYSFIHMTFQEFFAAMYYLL", "UniProt O35387": "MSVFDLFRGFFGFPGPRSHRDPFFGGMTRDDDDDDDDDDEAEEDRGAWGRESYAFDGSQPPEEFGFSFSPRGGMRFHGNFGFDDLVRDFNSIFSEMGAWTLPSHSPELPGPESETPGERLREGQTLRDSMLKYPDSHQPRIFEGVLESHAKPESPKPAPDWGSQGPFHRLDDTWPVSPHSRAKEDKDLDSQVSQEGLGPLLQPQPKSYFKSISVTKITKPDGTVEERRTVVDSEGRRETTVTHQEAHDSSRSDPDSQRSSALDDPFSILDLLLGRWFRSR", "UniProt O00165": "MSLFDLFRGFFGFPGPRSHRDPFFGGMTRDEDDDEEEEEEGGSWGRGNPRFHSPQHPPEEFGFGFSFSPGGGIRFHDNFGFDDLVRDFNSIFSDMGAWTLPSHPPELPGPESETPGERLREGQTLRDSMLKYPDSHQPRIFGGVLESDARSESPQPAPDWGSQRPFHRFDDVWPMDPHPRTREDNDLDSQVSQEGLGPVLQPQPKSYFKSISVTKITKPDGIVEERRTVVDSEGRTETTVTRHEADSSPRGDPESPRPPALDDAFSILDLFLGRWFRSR"},
  "source": "paper PMC11136987",
  "key": {"[1]": {"molecular_target": "NLRP3 (endogenous, mouse microglia BV2 and mouse brain) (mouse (endogenous in BV2 cells and C57BL/6 brain)) (UniProt Q8R4B8)", "test": "co-IP; BV2 cell lysates, ASC/HAX-1/NLRP3 antibody crosslinked to magnetic beads (Pierce Crosslink Magnetic IP Kit), 4 °C 1 h, western blot; control and OGD/R cells; HAX-1 NC, OE, KD1 and KD2 groups"}, "[2]": {"molecular_target": "recombinant full-length ASC (UniProt Q9ULZ3)", "test": "BLI; Octet RED96; HAX-1 against ASC, performed as for NLRP3; which of the two was immobilised is not stated; PBS; both purified"}, "[3]": {"molecular_target": "recombinant partial NLRP3 1-536aa (UniProt Q96P20)", "test": "BLI; sequential binding: NLRP3 1-536 on SA biosensors, first 25/50/100 nM HAX-1 then 100 nM ASC, or first 25/50/100 nM ASC then 100 nM HAX-1; PBS; both purified"}},
  "note": "Results are given in words; binding and its absence hold for the method and conditions named. For part of these data: In cells and extracts the contact can be indirect. Some entries that bind do so weakly or less than the wild type.",
  "data": [
    {"substance": "HAX-1 (endogenous, mouse microglia BV2 and mouse brain) (from UniProt O35387 1-280)", "values": [
      {"measurement": "binding", "setting": "[1]", "value": "binds"}
    ]},
    {"substance": "recombinant full-length HAX-1 (from UniProt O00165 1-279)", "values": [
      {"measurement": "binding", "setting": "[2]", "value": "no binding"},
      {"measurement": "binding", "setting": "[3]", "value": "binds"}
    ]}
  ]
}
